Experimental data taken from the supplement of paper PMC11732987, “Enantioselective OTUD7B fragment discovery through chemoproteomics screening and high-throughput optimisation” (Communications Chemistry, 2025).
The list shows a part of the results. The data scatter; read single values as rough.

Chains of the proteins cited; added tags and fusions are not shown. Lines headed by an entry give the natural chain unless they say otherwise; changes in a name come on top.
UniProt Q9UL03: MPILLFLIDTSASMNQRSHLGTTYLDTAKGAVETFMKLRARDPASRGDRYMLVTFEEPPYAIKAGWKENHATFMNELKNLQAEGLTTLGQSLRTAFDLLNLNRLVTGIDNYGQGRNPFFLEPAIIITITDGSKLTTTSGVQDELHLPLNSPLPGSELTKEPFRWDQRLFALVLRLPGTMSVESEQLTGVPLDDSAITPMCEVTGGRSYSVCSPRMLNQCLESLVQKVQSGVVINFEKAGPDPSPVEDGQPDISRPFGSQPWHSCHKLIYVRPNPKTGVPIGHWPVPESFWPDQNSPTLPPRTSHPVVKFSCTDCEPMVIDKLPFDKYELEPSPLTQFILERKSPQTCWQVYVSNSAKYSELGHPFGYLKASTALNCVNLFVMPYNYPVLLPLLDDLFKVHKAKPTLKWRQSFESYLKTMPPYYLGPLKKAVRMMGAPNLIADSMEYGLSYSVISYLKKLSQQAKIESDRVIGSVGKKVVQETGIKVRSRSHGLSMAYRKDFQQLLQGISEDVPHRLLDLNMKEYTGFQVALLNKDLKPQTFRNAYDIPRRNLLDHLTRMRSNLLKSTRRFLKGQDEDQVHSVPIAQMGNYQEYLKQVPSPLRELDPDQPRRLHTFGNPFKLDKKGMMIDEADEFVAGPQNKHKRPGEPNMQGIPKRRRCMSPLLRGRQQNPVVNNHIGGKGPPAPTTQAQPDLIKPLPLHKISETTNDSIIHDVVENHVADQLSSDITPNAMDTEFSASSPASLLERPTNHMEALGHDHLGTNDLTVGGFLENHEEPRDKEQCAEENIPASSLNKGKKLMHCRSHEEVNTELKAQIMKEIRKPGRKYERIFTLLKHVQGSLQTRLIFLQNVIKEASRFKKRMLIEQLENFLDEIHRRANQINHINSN
UniProt Q9H0C8: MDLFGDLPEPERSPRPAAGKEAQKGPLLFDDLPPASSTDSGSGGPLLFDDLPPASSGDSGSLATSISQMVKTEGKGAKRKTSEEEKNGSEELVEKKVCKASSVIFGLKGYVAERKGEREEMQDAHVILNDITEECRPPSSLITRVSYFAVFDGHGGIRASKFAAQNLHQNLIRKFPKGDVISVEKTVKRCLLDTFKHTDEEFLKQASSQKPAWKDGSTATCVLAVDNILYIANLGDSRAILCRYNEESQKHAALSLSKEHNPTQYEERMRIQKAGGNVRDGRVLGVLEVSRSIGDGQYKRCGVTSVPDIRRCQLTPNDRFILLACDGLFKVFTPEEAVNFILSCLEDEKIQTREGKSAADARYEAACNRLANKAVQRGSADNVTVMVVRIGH
UniProt Q13418: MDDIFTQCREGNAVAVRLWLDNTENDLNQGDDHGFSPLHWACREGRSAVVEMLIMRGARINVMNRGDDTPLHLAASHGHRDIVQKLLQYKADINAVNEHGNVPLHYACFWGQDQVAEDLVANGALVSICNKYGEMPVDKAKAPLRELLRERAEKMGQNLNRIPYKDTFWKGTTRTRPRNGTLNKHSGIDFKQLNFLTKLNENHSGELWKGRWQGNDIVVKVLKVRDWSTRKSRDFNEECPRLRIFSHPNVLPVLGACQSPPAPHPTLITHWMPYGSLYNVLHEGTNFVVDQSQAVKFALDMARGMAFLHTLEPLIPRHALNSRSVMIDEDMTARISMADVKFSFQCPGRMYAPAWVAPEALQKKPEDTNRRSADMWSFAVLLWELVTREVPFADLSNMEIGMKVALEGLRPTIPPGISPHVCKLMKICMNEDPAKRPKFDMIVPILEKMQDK
UniProt Q86VI3: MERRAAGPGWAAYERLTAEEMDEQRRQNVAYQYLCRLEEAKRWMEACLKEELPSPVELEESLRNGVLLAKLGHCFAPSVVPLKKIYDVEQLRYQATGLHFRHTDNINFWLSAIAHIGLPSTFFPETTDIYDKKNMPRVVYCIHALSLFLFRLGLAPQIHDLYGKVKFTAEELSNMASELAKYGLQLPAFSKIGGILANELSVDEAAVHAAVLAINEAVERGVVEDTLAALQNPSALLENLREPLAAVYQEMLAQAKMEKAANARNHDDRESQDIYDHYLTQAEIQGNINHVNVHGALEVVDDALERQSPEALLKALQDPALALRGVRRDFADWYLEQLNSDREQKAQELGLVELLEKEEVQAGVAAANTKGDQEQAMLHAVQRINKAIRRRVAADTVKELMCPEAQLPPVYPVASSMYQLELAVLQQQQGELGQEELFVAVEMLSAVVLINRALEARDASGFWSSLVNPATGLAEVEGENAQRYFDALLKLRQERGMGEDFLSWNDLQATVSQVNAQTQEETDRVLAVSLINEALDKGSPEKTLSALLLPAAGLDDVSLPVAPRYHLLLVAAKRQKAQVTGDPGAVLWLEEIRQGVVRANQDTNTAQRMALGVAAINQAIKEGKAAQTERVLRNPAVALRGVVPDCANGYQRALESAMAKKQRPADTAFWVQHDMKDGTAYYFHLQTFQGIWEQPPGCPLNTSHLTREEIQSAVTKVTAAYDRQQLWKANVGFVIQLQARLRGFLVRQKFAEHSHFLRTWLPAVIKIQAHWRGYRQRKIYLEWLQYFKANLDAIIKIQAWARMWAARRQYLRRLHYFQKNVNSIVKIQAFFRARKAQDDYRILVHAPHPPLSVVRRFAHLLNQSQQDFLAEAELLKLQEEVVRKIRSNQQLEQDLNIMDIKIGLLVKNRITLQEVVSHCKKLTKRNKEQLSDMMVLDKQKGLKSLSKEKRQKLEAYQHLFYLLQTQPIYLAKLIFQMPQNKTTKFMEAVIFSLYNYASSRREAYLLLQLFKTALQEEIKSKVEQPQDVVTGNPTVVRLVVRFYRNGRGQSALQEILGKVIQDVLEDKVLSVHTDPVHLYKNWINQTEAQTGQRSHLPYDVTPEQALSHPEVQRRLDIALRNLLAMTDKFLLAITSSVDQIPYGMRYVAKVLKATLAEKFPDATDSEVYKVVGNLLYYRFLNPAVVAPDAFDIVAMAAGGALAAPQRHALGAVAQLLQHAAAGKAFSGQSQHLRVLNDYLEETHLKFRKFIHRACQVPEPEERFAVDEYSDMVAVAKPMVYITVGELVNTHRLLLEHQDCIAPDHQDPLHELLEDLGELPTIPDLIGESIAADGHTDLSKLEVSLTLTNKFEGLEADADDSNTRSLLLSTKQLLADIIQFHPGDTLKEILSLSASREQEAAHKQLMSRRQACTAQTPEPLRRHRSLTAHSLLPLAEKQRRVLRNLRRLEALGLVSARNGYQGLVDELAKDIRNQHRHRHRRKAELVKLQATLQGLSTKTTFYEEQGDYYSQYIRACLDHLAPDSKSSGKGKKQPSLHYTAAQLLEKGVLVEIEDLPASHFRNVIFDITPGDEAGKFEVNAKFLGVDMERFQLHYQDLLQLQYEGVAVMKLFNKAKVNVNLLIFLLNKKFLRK
UniProt Q92551: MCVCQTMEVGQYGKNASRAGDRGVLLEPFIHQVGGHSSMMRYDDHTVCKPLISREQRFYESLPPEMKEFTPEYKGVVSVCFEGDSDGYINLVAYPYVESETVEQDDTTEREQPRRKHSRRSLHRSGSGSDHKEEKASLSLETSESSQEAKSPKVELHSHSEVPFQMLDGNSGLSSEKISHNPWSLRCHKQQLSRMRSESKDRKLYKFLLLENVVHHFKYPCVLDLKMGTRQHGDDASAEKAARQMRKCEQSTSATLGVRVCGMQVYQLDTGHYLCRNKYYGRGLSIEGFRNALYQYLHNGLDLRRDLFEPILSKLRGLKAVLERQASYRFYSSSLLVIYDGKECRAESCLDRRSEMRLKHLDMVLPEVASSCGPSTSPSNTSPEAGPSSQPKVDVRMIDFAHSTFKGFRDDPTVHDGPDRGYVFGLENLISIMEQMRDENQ
UniProt Q9Y6K9, whole entry, looked up: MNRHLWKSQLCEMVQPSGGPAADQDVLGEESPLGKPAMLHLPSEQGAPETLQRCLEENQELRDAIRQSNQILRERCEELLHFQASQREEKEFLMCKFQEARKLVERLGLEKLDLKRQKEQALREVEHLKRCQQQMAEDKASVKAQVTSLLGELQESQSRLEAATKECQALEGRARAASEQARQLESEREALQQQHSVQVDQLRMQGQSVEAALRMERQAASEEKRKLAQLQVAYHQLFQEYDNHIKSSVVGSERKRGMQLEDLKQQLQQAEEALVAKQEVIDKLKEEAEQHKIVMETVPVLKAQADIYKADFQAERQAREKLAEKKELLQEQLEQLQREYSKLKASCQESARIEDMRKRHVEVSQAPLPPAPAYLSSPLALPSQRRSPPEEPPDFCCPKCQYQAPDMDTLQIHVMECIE
UniProt Q9HBG6: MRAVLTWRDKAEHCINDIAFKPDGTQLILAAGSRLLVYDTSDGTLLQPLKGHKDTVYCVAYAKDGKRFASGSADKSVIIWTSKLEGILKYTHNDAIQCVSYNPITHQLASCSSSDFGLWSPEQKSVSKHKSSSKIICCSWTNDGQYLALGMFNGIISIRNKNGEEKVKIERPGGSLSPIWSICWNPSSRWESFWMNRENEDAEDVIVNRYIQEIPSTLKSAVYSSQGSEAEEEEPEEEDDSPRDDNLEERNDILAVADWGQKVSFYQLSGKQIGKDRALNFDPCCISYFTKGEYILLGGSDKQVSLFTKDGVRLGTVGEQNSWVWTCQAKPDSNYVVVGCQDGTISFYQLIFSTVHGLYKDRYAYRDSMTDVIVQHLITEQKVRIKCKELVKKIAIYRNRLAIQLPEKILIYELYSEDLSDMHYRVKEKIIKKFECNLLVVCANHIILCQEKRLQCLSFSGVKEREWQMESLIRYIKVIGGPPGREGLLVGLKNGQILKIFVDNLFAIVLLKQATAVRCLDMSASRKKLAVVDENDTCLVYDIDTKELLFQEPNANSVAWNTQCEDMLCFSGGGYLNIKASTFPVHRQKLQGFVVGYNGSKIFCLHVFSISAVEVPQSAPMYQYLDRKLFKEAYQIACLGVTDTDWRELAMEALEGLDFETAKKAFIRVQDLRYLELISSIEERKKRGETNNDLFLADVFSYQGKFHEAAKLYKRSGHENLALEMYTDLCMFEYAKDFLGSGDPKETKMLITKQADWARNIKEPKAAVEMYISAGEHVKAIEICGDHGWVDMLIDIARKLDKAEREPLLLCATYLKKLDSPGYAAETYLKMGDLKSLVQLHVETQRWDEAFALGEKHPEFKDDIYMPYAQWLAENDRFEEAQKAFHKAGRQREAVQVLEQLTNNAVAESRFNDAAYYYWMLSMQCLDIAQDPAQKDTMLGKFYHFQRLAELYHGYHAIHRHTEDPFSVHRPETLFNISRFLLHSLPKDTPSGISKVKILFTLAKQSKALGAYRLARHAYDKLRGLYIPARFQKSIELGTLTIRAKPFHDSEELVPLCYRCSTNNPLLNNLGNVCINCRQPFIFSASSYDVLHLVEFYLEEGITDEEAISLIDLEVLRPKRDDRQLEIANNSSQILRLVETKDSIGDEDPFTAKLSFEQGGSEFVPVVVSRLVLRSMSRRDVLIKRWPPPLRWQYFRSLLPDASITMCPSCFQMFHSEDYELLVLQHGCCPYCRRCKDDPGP
UniProt Q8TEX9: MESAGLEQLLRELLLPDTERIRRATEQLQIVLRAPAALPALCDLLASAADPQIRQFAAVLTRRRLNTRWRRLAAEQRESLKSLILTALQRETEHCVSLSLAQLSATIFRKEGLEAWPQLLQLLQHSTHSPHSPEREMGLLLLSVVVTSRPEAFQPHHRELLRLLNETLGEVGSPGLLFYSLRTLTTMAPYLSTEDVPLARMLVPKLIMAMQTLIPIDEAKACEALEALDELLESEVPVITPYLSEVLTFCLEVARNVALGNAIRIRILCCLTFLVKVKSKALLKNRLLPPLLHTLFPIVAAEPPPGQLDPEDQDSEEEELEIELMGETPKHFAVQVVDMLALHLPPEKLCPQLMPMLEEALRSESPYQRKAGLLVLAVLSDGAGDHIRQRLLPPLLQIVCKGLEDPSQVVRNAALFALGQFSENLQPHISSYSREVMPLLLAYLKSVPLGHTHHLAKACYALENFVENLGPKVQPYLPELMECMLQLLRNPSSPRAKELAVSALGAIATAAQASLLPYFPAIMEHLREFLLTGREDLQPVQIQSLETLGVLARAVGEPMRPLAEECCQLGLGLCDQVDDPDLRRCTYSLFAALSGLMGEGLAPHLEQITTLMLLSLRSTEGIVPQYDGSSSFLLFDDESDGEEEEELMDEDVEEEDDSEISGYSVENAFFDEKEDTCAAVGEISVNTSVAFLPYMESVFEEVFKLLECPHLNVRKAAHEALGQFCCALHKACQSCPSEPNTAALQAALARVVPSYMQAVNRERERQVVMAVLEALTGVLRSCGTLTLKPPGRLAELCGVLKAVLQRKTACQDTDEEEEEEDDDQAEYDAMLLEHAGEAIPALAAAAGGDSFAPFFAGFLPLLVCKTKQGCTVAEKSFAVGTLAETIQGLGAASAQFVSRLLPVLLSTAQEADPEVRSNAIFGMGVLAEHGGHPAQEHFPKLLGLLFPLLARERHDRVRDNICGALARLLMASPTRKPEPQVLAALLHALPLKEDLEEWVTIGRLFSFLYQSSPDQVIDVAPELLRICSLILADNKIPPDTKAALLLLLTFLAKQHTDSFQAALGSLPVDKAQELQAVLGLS

Each target was assayed with ClCC(=O)N[C@H]1CCCc2ccccc12 (assay: log2 mean competition ratio of IA-DTB cysteine labelling (DMSO/compound) (log2 ratio); higher = stronger cysteine engagement by compound). Conditions: 50 µM; treatment time: 4 h; cell line lysate: HEK293T.
Description: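 IA-DTB competitive cysteine chemoproteomics in HEK293T RIPA lysate. Lysates were treated with compound 29 or 30 at 50 or 200 µM for 4 h, then IA-DTB (500 µM, 1 h), trypsin-digested, NeutrAvidin-enriched and analysed by diaPASEF. Competition ratio = intensity DMSO / intensity compound (n=4 treated, n=64 DMSO); binding: mean log2 CR ≥ 1 and p ≤ 0.05 plus QC filters. Target is the cysteine site.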

Target | log2 mean competition ratio
HSPA1A;HSPA1B C306;(C306) | -0.308
INTS6 C219 (UniProt Q9UL03) | -0.417
INTS13 C178 (UniProt Q9NVM9) | -0.0174
INTU C692 (UniProt Q9ULD6) | 0.126
ILKAP C301 (UniProt Q9H0C8) | -0.121
ILK C428 (UniProt Q13418) | -0.147
ILK C346 (UniProt Q13418) | -0.143
HSPH1 C310 | -0.38
IQGAP3 C1254 (UniProt Q86VI3) | 0.244
IARS1 C433 | 0.227
INTS1 C969 (UniProt Q8N201) | -0.0954
INTS5 C485 (UniProt Q6P9B9) | -0.0732
IP6K1 C48 (UniProt Q92551) | -0.404
IKBKG C167 (UniProt Q9Y6K9) | 0.173
IQGAP3 C919 (UniProt Q86VI3) | -0.305
IFT122 C519 (UniProt Q9HBG6) | -0.308
HUWE1 C3361 | -0.277
HSP90AA1 C572 (UniProt P07900) | 0.208
IPO4 C797 (UniProt Q8TEX9) | -0.259
IPO4 C962 (UniProt Q8TEX9) | 0.397

Same assay, conditions: 200 µM; treatment time: 4 h; cell line lysate: HEK293T

Target | log2 mean competition ratio
HSPA1A;HSPA1B C306;(C306) | -0.0733
INTS6 C219 (UniProt Q9UL03) | 0.0863
INTS13 C178 (UniProt Q9NVM9) | -0.312
INTU C692 (UniProt Q9ULD6) | 0.77
ILKAP C301 (UniProt Q9H0C8) | 0.138
ILK C428 (UniProt Q13418) | 0.102
ILK C346 (UniProt Q13418) | 0.208
HSPH1 C310 | -0.225
IQGAP3 C1254 (UniProt Q86VI3) | -0.16
IARS1 C433 | -0.248
INTS1 C969 (UniProt Q8N201) | 0.545
INTS5 C485 (UniProt Q6P9B9) | -0.177
IP6K1 C48 (UniProt Q92551) | -0.0988
IKBKG C167 (UniProt Q9Y6K9) | 0.222
IQGAP3 C919 (UniProt Q86VI3) | 0.0814
IFT122 C519 (UniProt Q9HBG6) | 0.0929
HUWE1 C3361 | 0.261
HSP90AA1 C572 (UniProt P07900) | 0.181
IPO4 C797 (UniProt Q8TEX9) | 0.0919
IPO4 C962 (UniProt Q8TEX9) | -0.124
